# Source: patent publication US20240376165A1, “COMPOSITION COMPRISING VGLL1 PEPTIDE FOR TREATMENT OF CANCER” (ONECUREGEN CO., LTD., priority 2020, published 2024)
# By UniProt entry, the sequences of proteins in these tests, tags left out.
# UniProt Q15561: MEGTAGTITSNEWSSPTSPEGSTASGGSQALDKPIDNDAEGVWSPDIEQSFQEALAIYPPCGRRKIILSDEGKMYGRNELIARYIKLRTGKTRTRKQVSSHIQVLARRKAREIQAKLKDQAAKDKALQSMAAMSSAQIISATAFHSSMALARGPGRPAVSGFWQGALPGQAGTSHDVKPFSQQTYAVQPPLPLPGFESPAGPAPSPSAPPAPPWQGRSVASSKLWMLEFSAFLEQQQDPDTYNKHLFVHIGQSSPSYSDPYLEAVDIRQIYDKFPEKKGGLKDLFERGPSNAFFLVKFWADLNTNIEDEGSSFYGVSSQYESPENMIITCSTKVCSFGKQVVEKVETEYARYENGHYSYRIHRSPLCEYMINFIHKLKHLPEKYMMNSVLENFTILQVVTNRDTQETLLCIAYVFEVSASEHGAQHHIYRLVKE
# No constants are given. Whether binding was seen depends on the method and setting. Binding seen in cells or lysates may run through a third protein. Some binding calls cover weakened binding; strength is not graded here. Where a sequence is shown, tags or fusion partners need not be part of it.
# Target: GFP-TEAD4, expressed from the GFP-TEAD4 vector (UniProt Q15561)
# Assay: co-immunoprecipitation with HA antibody agarose, western blot with GFP antibody
row,binding,Binder
1,binds,"HA-VGLL1 (WT), expressed from pcDNA3-HA-VGLL1 (protein, not shown: small tags and cut ends) MEEMKKTAIRLPKGKQKPIKTEWNSRCVLFTYFQGDISSVVDEHFSRALSNIKSPQELTPSSQSEGVMLKNDDSMSPNQWRYSSPWTKPQPEVPVTNRAANCNLHVPGPMAVNQFSPSLARRASVRPGELWHFSSLAGTSSLEPGYSHPFPARHLVPEPQPDGKREPLLSLLQQDRCLARPQESAARENGNPGQIAGSTGLLFNLPPGSVHYKKLYVSRGSASTSLPNETLSELETPGKYSLTPPNHWGHPHRYLQHL"
2,binds,"HA-VGLL1-S124A, expressed from pcDNA3-HA-VGLL1-S124A (protein, not shown: small tags and cut ends) MEEMKKTAIRLPKGKQKPIKTEWNSRCVLFTYFQGDISSVVDEHFSRALSNIKSPQELTPSSQSEGVMLKNDDSMSPNQWRYSSPWTKPQPEVPVTNRAANCNLHVPGPMAVNQFSPSLARRAAVRPGELWHFSSLAGTSSLEPGYSHPFPARHLVPEPQPDGKREPLLSLLQQDRCLARPQESAARENGNPGQIAGSTGLLFNLPPGSVHYKKLYVSRGSASTSLPNETLSELETPGKYSLTPPNHWGHPHRYLQHL"
3,binds,"HA-VGLL1-S50A, expressed from pcDNA3-HA-VGLL1-S50A (protein, not shown: small tags and cut ends) MEEMKKTAIRLPKGKQKPIKTEWNSRCVLFTYFQGDISSVVDEHFSRALANIKSPQELTPSSQSEGVMLKNDDSMSPNQWRYSSPWTKPQPEVPVTNRAANCNLHVPGPMAVNQFSPSLARRASVRPGELWHFSSLAGTSSLEPGYSHPFPARHLVPEPQPDGKREPLLSLLQQDRCLARPQESAARENGNPGQIAGSTGLLFNLPPGSVHYKKLYVSRGSASTSLPNETLSELETPGKYSLTPPNHWGHPHRYLQHL"
